From article PMC12297241
These are yes or no findings as the source states them, for the method shown. Binding seen in cells or lysates may run through a third protein. Some results given as binding are weak or reduced against the parent protein; the word gives no strength.

Amino acid sequences for entries named in this document (tags omitted). A change or cut given only in a name is not applied to a line headed by its entry.
UniProt Q9Y572: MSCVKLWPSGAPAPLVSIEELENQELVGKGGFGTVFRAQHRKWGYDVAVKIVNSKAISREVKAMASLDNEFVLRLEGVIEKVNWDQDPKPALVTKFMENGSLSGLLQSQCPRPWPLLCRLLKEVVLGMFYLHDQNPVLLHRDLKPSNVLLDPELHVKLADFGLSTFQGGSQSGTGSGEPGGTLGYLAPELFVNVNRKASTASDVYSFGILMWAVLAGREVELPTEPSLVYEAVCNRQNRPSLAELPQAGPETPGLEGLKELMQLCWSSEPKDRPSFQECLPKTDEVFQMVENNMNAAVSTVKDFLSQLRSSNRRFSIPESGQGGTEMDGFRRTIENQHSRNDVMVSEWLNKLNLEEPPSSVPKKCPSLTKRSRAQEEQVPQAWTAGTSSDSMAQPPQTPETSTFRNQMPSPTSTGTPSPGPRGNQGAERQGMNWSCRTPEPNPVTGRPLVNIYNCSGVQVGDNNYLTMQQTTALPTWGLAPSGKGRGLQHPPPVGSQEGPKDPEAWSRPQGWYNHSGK
UniProt Q13546: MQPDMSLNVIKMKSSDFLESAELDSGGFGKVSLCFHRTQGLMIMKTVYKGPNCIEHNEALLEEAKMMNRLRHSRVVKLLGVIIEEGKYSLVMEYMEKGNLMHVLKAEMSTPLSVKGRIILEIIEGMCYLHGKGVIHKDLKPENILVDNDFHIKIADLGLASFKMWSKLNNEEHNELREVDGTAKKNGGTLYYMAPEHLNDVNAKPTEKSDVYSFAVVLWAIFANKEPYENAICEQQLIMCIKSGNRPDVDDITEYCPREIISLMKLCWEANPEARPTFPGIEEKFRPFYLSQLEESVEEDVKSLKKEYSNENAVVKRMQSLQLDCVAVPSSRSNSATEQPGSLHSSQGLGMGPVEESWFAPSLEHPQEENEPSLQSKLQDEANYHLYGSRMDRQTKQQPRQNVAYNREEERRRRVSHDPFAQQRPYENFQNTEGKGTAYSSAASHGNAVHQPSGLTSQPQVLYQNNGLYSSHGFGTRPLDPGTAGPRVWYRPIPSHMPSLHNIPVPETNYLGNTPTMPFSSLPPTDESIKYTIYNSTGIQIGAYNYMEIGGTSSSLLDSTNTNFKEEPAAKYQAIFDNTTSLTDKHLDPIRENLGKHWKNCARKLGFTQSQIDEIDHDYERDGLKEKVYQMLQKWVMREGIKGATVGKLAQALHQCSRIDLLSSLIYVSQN

How the values were obtained:
[1] = biological target: Flag-RIPK3 (not stated (human or mouse cDNA cloned)) (UniProt Q9Y572); test: co-IP; HEK293T cells co-transfected for 24 h with Flag- and Myc-tagged expression vectors; lysates immunoprecipitated overnight with anti-Flag beads at 4 °C; immunoblot
[2] = biological target: Flag-RIPK1 wild-type stably expressed in HT-29 RIPK1-KO cells (human) (UniProt Q13546); test: co-IP; HT-29 RIPK1-KO cells stably expressing Flag-RIPK1, stimulated with TSZ (TNF + Smac mimetic + zVAD) for indicated time points; lysates immunoprecipitated overnight with anti-Flag beads at 4 °C (Complex II); immunoblot
[3] = biological target: Flag-RIPK1 S213E stably expressed in HT-29 RIPK1-KO cells (human) (UniProt Q13546); test: as above

Row | binding [1] | binding [2] | binding [3] | Substance
1 | binds | – | – | RIPK1-WT overexpressed in HEK293T cells (Flag-RIPK1-WT or Myc-RIPK1-WT) (from UniProt Q13546 1-671)
2 | – | binds | no binding | RIPK3, endogenous in HT-29 cells (from UniProt Q9Y572 1-518)
